The supplement of paper PMC4683952
Some of the results follow. Rule as the data show it: active = 2 or more and inactive = the rest. Most values lie within the scatter of the assay; repeated measurements hardly agree.

test system: Lgr5 (MarsCy1-Lgr5-EGFP, U2OS); experiment: cell-surface Lgr5 expression (SCi1 fluorescence, background-subtracted) relative to WT DMSO (fold of DMSO control); higher = more Lgr5 at the plasma membrane; conditions: U2OS MarsCy1-Lgr5-EGFP stable; treatment time: overnight; library: ActiProbe-5K (TimTec); 25 µM

cell-surface Lgr5 expression, inactive:
O=[N+]([O-])c1ccc(Sc2ccsc2)c([N+](=O)[O-])c1 1.45, S=C(Nc1cnn(COc2ccc(Br)cc2)c1)NC1CC1 1.41, OC(CN1c2ccccc2Sc2ccccc21)Cn1cnc(-c2ccccc2)c1-c1ccccc1 (configuration not stated) 0.848, CC1CCCCN1C(=O)N1CCOCC1 (configuration not stated) 1.02, N#Cc1c2c(c(=O)n3c1[nH]c1ccccc13)CCC2 1.31, CC(=O)c1nnn(-c2nc(N3CCCC3)nc(N3CCCC3)n2)c1C 1, CCCCc1c(C)nc(N/N=C(\C)CC)nc1O 1.22, COC(=O)/C(C#N)=C\Nc1ccsn1 1.04, O=[N+]([O-])c1ccccc1NC1OC(CO)C(O)C1O (configuration not stated) 1.08, N#CCCSc1nc2ccccc2s1 1.42, O=[N+]([O-])c1ccc(N2CCOCC2)cc1N1CCOCC1 1.08, OCC1OC(Nc2ccccc2)CC1O (configuration not stated) 1.07, Brc1ccc2ncnc(N3CCOCC3)c2c1 0.402, Cn1nnnc1SC1=CS(=O)(=O)c2ccccc21 0.717, COc1cc(/C=N/n2nnnc2N)cc(Cl)c1OC 1.42, CCN1/C(=C2\SC(=S)N(C)C2=O)Sc2ccc(Cl)cc21 1.24, Cc1ccc(C(O)c2nccn2C)o1 (configuration not stated) 1.13, Cc1ccc2c(c1)-c1c(ssc1=S)C(C)(C)N2 1.25, CN(C)CCCNS(=O)(=O)c1ccc(F)cc1 0.977, O=c1c2c3c(sc2nc2n1CCCC2)CCCCC3 1.21, O=C(NC1CCS(=O)(=O)C1)C(=O)NC1CCS(=O)(=O)C1 (configuration not stated) 1.11, Cn1ccnc1/C=N\Nc1cc(Cl)ccc1Cl 1.23, CC1=CC(=O)C2(CCCCC2)NC1 1.19, O=S(=O)(Nc1ccc(F)c(F)c1)c1cccs1 1.21, CNC(=O)c1c(N)sc2c1CCCCC2 1.25, CSC1=NC(C)(C)CC12C=CC(=O)c1ccccc12 (configuration not stated) 1.02, CNCc1cc2ccccc2s1.Cl 1.26, CCOC(=O)CSc1nsc(SCC(=O)OCC)c1C#N 1.14, c1ccc2c(SCc3ccc4nsnc4c3)ncnc2c1 1.14, NC(=S)N/N=C\c1c[nH]c2ccccc12 1.24, O=c1c(O)c(-c2ccc(O)cc2O)oc2ccc(O)cc12 1.13, N/C(=N/OCc1cc2c(cc1Cl)OCO2)c1nonc1N 1.01, COCCCN1C(=O)/C(=C/c2cccs2)SC1=S 1.13, C1(=C2\c3c(cccc3)C(C2)=O)/C(c2ccccc2C1=O)=O 1.1, O=C(O)C12CC3CC(C1)CC([N+](=O)[O-])(C3)C2 1.39, Nc1ccccc1-n1cnc2ccccc21 1.12, O=c1c2c(nc3[nH]c4ccccc4n13)CCCC2 0.971, c1ccc(Sc2ncnc3sc4c(c23)CCCC4)cc1 1.14, CC(/C=N/NC(N)=S)=C\c1ccc2c(c1)OCO2 1.15, CN1CCc2c(sc(N)c2C(N)=O)C1 1.32, Nc1nc(=O)c2[nH]c(=S)n(C3OC(CO)C(O)C3O)c2[nH]1 (configuration not stated) 1.02, COc1ccnc2cc(Cl)ccc12 0.999, CC12C=CC(=O)C=C1CCC1[C@@H]2C(O)CC2(C)[C@@H](C(=O)CO)CC[C@@H]12 (some centres not stated) 1.44, Fc1ccc(NC(=S)N2CCN(C(=S)Nc3ccc(F)cc3)CC2)cc1 1.16, CNC(=S)NNC(=O)c1ccco1 1.21, C(#Cc1ccc2sc3ccccc3c2c1)c1ccccc1 1.7, Nn1c(=S)[nH]c2ccccc2c1=O 1.24, Cn1ncc(Cl)c1C(=O)NCCn1cc(Br)cn1 1.25, NC(=O)c1csc2c1CCCC2 1.08, CCOC(=O)Cc1nnc(-c2nnc(CC(=O)OCC)o2)o1 1.11, O=C1NC(=S)S\C1=C/C=C\C=C\Nc1ccccc1 1.37, C(/c1cc(Br)c(cc1)OC)(c1cc(Br)c(cc1)OC)=C\Cl 1.47, c1cn2c3c(n1)CCCc3c1cc(C3CCCCC3)ccc12 1.16, C1=CC2CC1CC21COC(c2ccc(N3CCOCC3)cc2)OC1 (configuration not stated) 1.31, CSc1nnnn1-c1ccccc1 1.3, CCOC(=O)Cc1nnn(CC(=O)OCC)n1 1.07, O=C(N/N=C/c1ccco1)c1cccs1 1.16, CCOC(=O)NC(=S)Nc1nncs1 0.857, COC(=O)Cn1[nH]c(=O)ccc1=O 1.32, O=c1oc2c3ccccc3oc(=O)c2c2ccccc12 1.35, NC(=O)NCC(=O)NC(Cc1c[nH]cn1)C(=O)O (configuration not stated) 1.2, O=C1NCCN1C(=O)NC1CCCCC1 0.777, N#C/C(=C1\CCCCCN1)c1nnc2n1CCCC2 0.871, Clc1ccc(OCCNCC2CCCO2)cc1 (configuration not stated) 1.44, Cc1nc2ncccn2c1-c1csc(N)n1 1.36, Cc1cn2c(nc1=O)OC1C(O)C(CO)OC12 (configuration not stated) 1.1, Nc1ccc2ncc(Br)cc2c1 0.878, Nc1nonc1/C(=N\O)N1CCCCC1 1.16, O=[N+]([O-])c1ccc(N2CCN3CCCC3C2)c([N+](=O)[O-])c1 (configuration not stated) 1.09, CC1(C)Oc2ccc([N+](=O)[O-])cc2O1 1.23, O=C(CCCCCCCCC(=O)N/N=C/c1ccc([N+](=O)[O-])o1)N/N=C\c1ccc([N+](=O)[O-])o1 1.46, c1ccc(C(Sc2ccccn2)c2ccccc2)cc1 1.12, O=C(NCC1CCCO1)c1ccc(Br)o1 (configuration not stated) 0.973, OCc1cc(F)c(F)cc1Cl 1.24, CN1CCN(C(=O)C(=O)N2CCN(C)CC2)CC1 1.14, Clc1ncnc2sc3c(c12)CCCC3 1.31, O=Cc1cc2cc3c4c(c2oc1=O)CCCN4CCC3 1.16, Cl.NCC12CC3CC(CC(C3)C1)C2 0.844, NC(=O)NN1C(=O)/C(=C\c2ccco2)SC1=S 1.33, O=c1oc(-c2cc3c(s2)CCCC3)ns1 1.33, O=C1Nc2ccccc2/C1=c1/sc2nc3ccccc3n2c1=O 1.11, O=[N+]([O-])c1ccc(Nc2nccs2)c([N+](=O)[O-])c1 1.47, O=C1CCC(=O)N1CCCCCCN1C(=O)CCC1=O 0.817, [Br-].c1ccc(C[n+]2csc3ccccc32)cc1 1.28, O=S(=O)(Nc1ccc(Cl)cc1Cl)c1ccc(Cl)cc1 1.09, CSCCC(C(=O)O)N1C(=O)NC2NC(=O)NC21 (configuration not stated) 1.2, [O-][n+]1c2ccccc2[n+]([O-])c2cc(O)ccc21 1.09, CCOC(CN1CCCCC1)OCC 0.964, CCN1C(=O)CS/C1=N\N1CCOCC1 1.06, CCn1cc(Br)c(CN(C)C(=O)c2noc(C)c2Cn2nc(C)c([N+](=O)[O-])c2C)n1 1.13, C=CCC(O)(CC=C)C(N)CCSC (configuration not stated) 1.36, CC1Cn2c(COc3ccccc3)nnc2S1 (configuration not stated) 1.12, COc1ccc(C2=Nn3c(nnc3-c3ccccc3F)SC2)cc1OC 0.941, N#Cc1c(NC(=O)CCn2cnnn2)sc2c1CCC2 1.13, O=C1CCC(C(=O)NC2C3CC4CC(C3)CC2C4)=NN1 (configuration not stated) 0.833, N#Cc1cnc(S)nc1N 1.01, N[C@@H]1CS(=O)(=O)C[C@H]1O 1.17, OC1CC2CC1C1CCCC21 (configuration not stated) 1.2, O=[N+]([O-])c1ccc(C2OCOCC2O)cc1 (configuration not stated) 1.2, Nc1nonc1-c1noc(CN2CCOCC2)n1 1.19, Sc1nnc(-c2ccncc2)n1/N=C/c1cccnc1 1.15, C(=N/n1cnnc1)/c1ccc2c(c1)OCO2 0.892, CC1(C)OC(C)(C)c2c1sc(N)c2C#N 1.26, COc1cc2c(cc1OC)C(CCCCCl)=NC(C)(C)C2 1.26, CC1(C)CC(N2C(=O)OC3(CCCCC3)C2(C)O)CC(C)(C)N1 (configuration not stated) 1.16, CNc1ccc2c(c1)[S]=c1cc(N)ccc1=N2.Cl 1.54, Fc1ccc(N2Cc3ccccc3C2)cc1 0.93, CC(=O)OC1CCC2(C)C(=CCC3C4CC=C(C#N)C4(C)CCC32)C1 (configuration not stated) 1.37, CN1CN(Cc2ccccc2)CNC1=S 1.24

cell-surface Lgr5 expression, active:
C=CCn1c2ccccc2c2nnc(SCc3ccc4nonc4c3)nc21 2.34, Cc1[nH]nc2c1C(c1cc(Br)cs1)C(C#N)=C(N)O2 (configuration not stated) 2.11, OCC1OC(n2cnc3c(=S)nc[nH]c32)C(O)C1O (configuration not stated) 2.09
